In PMC5620068:
Results are given in words; binding and its absence hold for the method and conditions named. Binding seen in cells or lysates may run through a third protein. Some binding calls cover weakened binding; strength is not graded here. For part of these data: Sequences can lack the tags named with a protein. Blank lines part the entries; values can stand above or below the molecule they belong to.

By UniProt entry, the sequences of proteins in these tests, tags left out.
UniProt Q92847: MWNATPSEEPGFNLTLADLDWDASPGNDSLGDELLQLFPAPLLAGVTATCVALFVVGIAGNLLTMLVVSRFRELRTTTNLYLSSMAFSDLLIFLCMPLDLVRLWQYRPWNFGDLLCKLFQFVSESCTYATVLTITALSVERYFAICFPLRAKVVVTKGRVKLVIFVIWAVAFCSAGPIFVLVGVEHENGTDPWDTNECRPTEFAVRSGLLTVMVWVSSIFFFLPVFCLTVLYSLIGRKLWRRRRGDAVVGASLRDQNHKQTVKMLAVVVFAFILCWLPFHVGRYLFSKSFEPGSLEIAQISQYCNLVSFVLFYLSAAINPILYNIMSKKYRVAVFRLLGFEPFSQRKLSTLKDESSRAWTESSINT

Assays:
[1] = biological target: T1, 3xFlag-tagged human melanocortin receptor accessory protein 2 (MRAP2-3Flag) (human) (UniProt Q96G30); assay: co-IP; HEK293T cells transfected with 3HA-GHSR1a and human MRAP2-3Flag; lysis in 0.1% n-dodecyl-β-maltoside in PBS; IP with anti-HA or anti-Flag and protein G dynabeads, 4 °C; western blot with anti-HA or anti-Flag; beads alone as control
T1 sequence: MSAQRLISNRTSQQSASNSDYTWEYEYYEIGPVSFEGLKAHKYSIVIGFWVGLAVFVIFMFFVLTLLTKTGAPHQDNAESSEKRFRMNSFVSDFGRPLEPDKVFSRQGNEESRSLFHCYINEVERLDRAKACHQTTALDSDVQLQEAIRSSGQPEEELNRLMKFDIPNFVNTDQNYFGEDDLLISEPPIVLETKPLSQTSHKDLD

[2] = biological target: 3 hemagglutinin (HA)-tagged growth hormone secretagogue receptor 1a (3HA-GHSR1a) (UniProt Q92847); assay: as above
3HA-GHSR1a-LgBit = 3HA-GHSR1a-LgBit (UniProt Q92847); assay: split reporter; NanoBit assay in live CHO cells, fusions expressed from the weak HSV-TK promoter; luminescence read 5 min after adding the substrate

Molecule: 3 hemagglutinin (HA)-tagged growth hormone secretagogue receptor 1a (3HA-GHSR1a) (from UniProt Q92847 1-366)
binding [1]: binds

B1: 3xFlag-tagged human melanocortin receptor accessory protein 2 (MRAP2-3Flag) (protein, UniProt Q96G30 1-205)
chain: MSAQRLISNRTSQQSASNSDYTWEYEYYEIGPVSFEGLKAHKYSIVIGFWVGLAVFVIFMFFVLTLLTKTGAPHQDNAESSEKRFRMNSFVSDFGRPLEPDKVFSRQGNEESRSLFHCYINEVERLDRAKACHQTTALDSDVQLQEAIRSSGQPEEELNRLMKFDIPNFVNTDQNYFGEDDLLISEPPIVLETKPLSQTSHKDLD
binding [2]: binds

binding (3HA-GHSR1a-LgBit): binds
B2: MRAP2-SmlBit (protein, UniProt Q96G30 1-205)
chain: MSAQRLISNRTSQQSASNSDYTWEYEYYEIGPVSFEGLKAHKYSIVIGFWVGLAVFVIFMFFVLTLLTKTGAPHQDNAESSEKRFRMNSFVSDFGRPLEPDKVFSRQGNEESRSLFHCYINEVERLDRAKACHQTTALDSDVQLQEAIRSSGQPEEELNRLMKFDIPNFVNTDQNYFGEDDLLISEPPIVLETKPLSQTSHKDLD
